According to publication PMC5338345:
No constants are given. Whether binding was seen depends on the method and setting. In cells and extracts the contact can be indirect. Some entries that bind do so weakly or less than the wild type. For part of these data: Where a sequence is shown, tags or fusion partners need not be part of it.

Chains of the proteins cited; added tags and fusions are not shown. Lines headed by an entry give the natural chain unless they say otherwise; changes in a name come on top. A line that says so, or that is headed by a name, gives the form on record, which may keep a tag or linker.
UniProt Q8BGV8: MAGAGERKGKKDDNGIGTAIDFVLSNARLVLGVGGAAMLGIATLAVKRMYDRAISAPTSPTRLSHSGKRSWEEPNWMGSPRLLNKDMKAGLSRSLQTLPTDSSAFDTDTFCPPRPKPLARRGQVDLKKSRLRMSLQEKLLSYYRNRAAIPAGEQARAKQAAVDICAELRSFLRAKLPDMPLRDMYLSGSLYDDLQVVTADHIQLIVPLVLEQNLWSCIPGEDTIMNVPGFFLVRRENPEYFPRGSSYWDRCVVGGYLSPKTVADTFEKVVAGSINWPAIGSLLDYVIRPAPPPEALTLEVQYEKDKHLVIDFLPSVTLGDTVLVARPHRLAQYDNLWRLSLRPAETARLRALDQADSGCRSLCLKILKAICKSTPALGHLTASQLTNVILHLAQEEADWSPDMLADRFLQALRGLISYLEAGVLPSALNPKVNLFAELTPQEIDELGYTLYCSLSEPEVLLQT
HA-Drp1 (human isoform 3) (O00429-4, form named): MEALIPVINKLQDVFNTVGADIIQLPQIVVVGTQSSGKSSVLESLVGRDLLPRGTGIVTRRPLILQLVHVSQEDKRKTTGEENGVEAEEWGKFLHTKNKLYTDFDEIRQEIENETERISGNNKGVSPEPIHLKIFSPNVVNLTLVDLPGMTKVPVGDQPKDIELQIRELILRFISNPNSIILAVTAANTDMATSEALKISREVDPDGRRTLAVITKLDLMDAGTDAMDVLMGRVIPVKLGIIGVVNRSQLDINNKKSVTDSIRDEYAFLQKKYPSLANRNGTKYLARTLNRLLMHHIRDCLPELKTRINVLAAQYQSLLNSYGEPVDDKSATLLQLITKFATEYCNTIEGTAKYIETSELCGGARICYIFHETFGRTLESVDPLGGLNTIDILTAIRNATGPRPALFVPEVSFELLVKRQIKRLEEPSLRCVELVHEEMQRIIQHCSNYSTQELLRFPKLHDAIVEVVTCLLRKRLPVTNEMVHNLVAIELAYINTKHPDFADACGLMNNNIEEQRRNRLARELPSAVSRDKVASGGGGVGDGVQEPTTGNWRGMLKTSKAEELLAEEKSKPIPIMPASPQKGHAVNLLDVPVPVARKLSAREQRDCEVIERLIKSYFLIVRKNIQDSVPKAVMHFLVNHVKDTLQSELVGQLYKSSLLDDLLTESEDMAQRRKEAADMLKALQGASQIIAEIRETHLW

Tests used:
Assay in all cases: pull-down; GST-tagged protein expressed in HEK293 cells isolated from the lysate on glutathione-Sepharose 4B; blotted for HA (transfected Drp1) or for endogenous Drp1; also with overexpression of SENP3, SENP2 or SENP5
GST-Fis1 (mouse) = biological target: T1, GST-Fis1 (mouse) (UniProt Q9CQ92)
T1 sequence: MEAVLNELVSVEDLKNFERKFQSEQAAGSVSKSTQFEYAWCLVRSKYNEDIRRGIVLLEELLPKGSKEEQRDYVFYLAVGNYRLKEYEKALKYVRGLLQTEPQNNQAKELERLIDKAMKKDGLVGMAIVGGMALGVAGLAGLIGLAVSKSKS

GST-MID49 (mouse) = biological target: T2, GST-MID49 (mouse) (UniProt Q5NCS9)
T2 sequence: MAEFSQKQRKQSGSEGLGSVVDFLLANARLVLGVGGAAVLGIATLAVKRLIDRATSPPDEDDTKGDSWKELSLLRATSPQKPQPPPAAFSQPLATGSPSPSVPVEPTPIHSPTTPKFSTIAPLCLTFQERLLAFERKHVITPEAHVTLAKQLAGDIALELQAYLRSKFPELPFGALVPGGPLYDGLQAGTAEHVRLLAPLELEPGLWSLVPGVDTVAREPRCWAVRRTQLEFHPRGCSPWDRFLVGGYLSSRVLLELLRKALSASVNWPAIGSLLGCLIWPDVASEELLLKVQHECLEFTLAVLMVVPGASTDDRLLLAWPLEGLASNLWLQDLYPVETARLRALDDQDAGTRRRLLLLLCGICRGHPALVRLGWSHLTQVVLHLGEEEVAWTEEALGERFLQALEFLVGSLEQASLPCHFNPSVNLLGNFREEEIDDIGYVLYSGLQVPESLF

GST-MID51 (mouse) = GST-MID51 (mouse) (UniProt Q8BGV8)

- binding (GST-Fis1 (mouse)): binds
- binding (GST-MID49 (mouse)): binds
- binding (GST-MID51 (mouse)): binds
Substance: HA-Drp1 (human isoform 3) (from UniProt O00429-4 1-699)
